Data reported in PubChem BioAssay AID1347426 (Functional Genomics Laboratory (NCATS/FGL), 2020).
In all, about 31,000 sequences went through this assay and about 1,400 (4.5%) were called active.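 How the source made its calls: active means median seed-adjusted z-score above 1 or below -1; inactive means the rest.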 This is one part of the list.

Experiment: Novel Modifiers of Survival Motor Neuron (SMN) Protein: Gene Identification via Genome-wide siRNA Screen;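 further: luminescence tracks full-length SMN protein made from the SMN2 reporter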
Conditions: HEK293T SMN2-luciferase reporter, siRNA knockdown, 72 h; actives lie on both sides
How it was run: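 Genome-wide siRNA screen (10418 genes, 3 siRNAs each, 1 pmol per well) by reverse transfection in HEK293T cells stably carrying an SMN2-luciferase reporter; luminescence after 72 hours, normalized to negative-control siRNA, log10-transformed, MAD-scored.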

Sequence	median seed-adjusted z-score
GCAUCGCCCUGAUGAGUAATT against ADCY7	inactive: -0.0202
GCUUCGCUGUCGGAUUUCATT against PXN	inactive: -0.69
CCCUGUAAUUUAGCCUUAATT against TXK	inactive: -0.109
AGGGAAUCAUCGUCGUGAATT against DYNLRB1	inactive: -0.58
GGAGAGAAAUGAGUAGCAATT against ST6GALNAC6	inactive: 0.367
CCACCAAAGUUCACCCUGATT against LMNA	inactive: -0.409
GAAUGAAGAAGAUUAAUUUTT against COX17	inactive: 0.772
GUCCAAGGAUUUAAAAGAUTT against HSPA4	inactive: 0.143
CGACCUUGUUAACAGCUAUTT against FUCA1	inactive: -0.94
GGGAGACGAUUGUUCAUCATT against XPA	active: 2.03
GACUUAUACCUGCGAAUUATT against PEX13	inactive: 0
AGAUAACAGUGUGCUCAUATT against RHD	inactive: 0.496
CAGUGAACCUCUAAUAGAATT against PIP5K1B	inactive: 0.0917
CAUCAAGUAUGGACAUUUATT against CD80	inactive: 0.553
CACCCUCACUUUGUACGAUTT against MYH13	inactive: 0.612
CAGCGGAUGUUAGGUUUAATT against PEX13	inactive: 0
GGCUCUUCAUGGACCUUCATT against GPR173	inactive: -0.147
GCAUGUCUAAACUUACUAATT against SSX2IP	inactive: -0.0799
CGUGAUGACUAUCCAUCAATT against RBMX	inactive: 0.0941
GAGCAUUCCUUCAAAUGGATT against SGK3	inactive: 0.178
GAUCCUUUCUCGUACAGAATT against KCTD12	inactive: 0.431
GCACUAUGCACCUACCCAATT against GPT2	inactive: 0.0268
GCAAUAGUCCCAAAAGCAATT against CD6	inactive: -0.33
GUUGACCUCCGAACAGUUATT against STOML3	inactive: -0.0711
CCAUCAAGUUUGAUUUACATT against CCNK	inactive: -0.717
CAGGAAUCUAGGUACCAGATT against FUT5	inactive: 0
GGAAUAGAACAAUUGAAAATT against ZDHHC3	inactive: 0.229

Quoted at random: 5 records from the list
Sequence	median seed-adjusted z-score
GCAAUAGUCCCAAAAGCAATT against CD6	inactive: -0.33
CCCUGUAAUUUAGCCUUAATT against TXK	inactive: -0.109
GAAUGAAGAAGAUUAAUUUTT against COX17	inactive: 0.772
GGAGAGAAAUGAGUAGCAATT against ST6GALNAC6	inactive: 0.367
AGGGAAUCAUCGUCGUGAATT against DYNLRB1	inactive: -0.58

Next results:

Sequence	median seed-adjusted z-score
GCAUCAUCCGAAUCAAGAATT against CLCN2	inactive: -0.0786
GAACGGCCUUUACUUGGAATT against KCTD18	inactive: -0.0473
CUAAGACCAGUAUAGUAAATT against ARF6	inactive: -0.805
AGAUCAAGGAGCUUGGAAATT against P2RX6	inactive: -0.351
GAAGCUCACCAAAAACUAUTT against P2RY6	inactive: 0.00327
GGUUAGCUUAUGUUACAUATT against E2F3	inactive: -0.215
GAGUUUUUCGAGCUCAUGATT against PGS1	active: 1.36
ACCAAAAUCAGGGAAUUUATT against NEDD9	inactive: 0
GACAGUAUCUGGAAGUUCUTT against TSC22D4	inactive: -0.508
CGAGUUACCUGUUAAACUUTT against IGF1	inactive: 0.559
GGUGUACGGAGUGAACAUATT against GFPT1	inactive: 0.416
AGAUAUUUGUUAUCGCUGUTT against CNBP	active: -1.14
GAAGUAACAUUGAGGGCUUTT against CD93	inactive: -0.0879
AACUCAAUUGGGCAUUUAATT against KCNIP4	inactive: -0.401
CUAGAGCAAUUGAAGGUAATT against HIBCH	inactive: 0.0655
CGACCUUCCGAGCUGAAAATT against NARS2	inactive: 0.505
GGACCAGAGAACUCGAUUUTT against SERPINA13	inactive: -0.403
GGUGGGUUUUGGAUACUGATT against G6PC	inactive: -0.628
GCAGAUCCCUUGUUUUCCUTT against APLN	inactive: 0.0181
GAGUCACGGUUGAGAUACATT against SEMA3D	inactive: -0.0201
GCACCUCUCUGCUAACUGUTT against PGC	inactive: 0.884
GAGAAGCAUCUGAAAGAAATT against DLL1	inactive: 0
ACUCAUCUCAGGACACUGATT against RPS6KL1	inactive: 0.0816
CAGACUUUGCUAUUCGUUUTT against ABCA6	inactive: 0.113
AGCACUAACUAUUUCAAAATT against UBE2D2	inactive: 0.574
AGAUUUAUCUUGAAGCUGATT against ARL4D	inactive: -0.523
ACUCAGUGAAUGUGGAUUATT against NDUFA4	inactive: 0
